Primary screen of a compound library

From ChEMBL document CHEMBL3988442, “University of Dundee, Small-Polar-MMV Screening Library” (2021).

Results are given as percent effect.
The record does not define 0% and 100%; most values in the screen are far below 50% and negative numbers occur (in some assays of this library far below -100).
Compounds were drawn at random from those tested, without regard to their results.
Two or more numbers in one place are separate tests of the same structure; such repeats can differ widely.

Mtb cholesterol medium: 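Phenotypic screen: M. tuberculosis growth, cholesterol and DPPC medium, 4 days; the read-out is not stated. Compounds at 50 µM. The record gives no direction; compounds that gave an IC50 in retests scored well above the rest, so higher reads as more growth inhibition. Of about 69,000 compounds tested this way, about 370 (0.54%) reached 50% or more in at least one test.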
Mtb glucose medium: 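Phenotypic screen: M. tuberculosis growth, glucose 7H9 medium, 3 days; the read-out is not stated. Tested at 50 µM. Direction is inferred from retests: higher values go with more growth inhibition. Size under these conditions: about 69,000 compounds, about 760 of them at 50% or above in at least one test.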

{"compound": "CS(=O)(=O)CCN1C[C@H](NC(=O)c2cnc(O)cn2)[C@@H](C2CC2)C1", "Mtb cholesterol medium": -15.94, "Mtb glucose medium": "-18.18 & -2.765"}
{"compound": "COc1cc(CNC(C)Cn2cccn2)cc2c1OCO2.Cl", "stereo": "stereo unspecified", "Mtb cholesterol medium": -27.3, "Mtb glucose medium": -30.76}
{"compound": "Cc1nn(-c2ccc(C(=O)O)cc2)c2c1C(C(C)C)SCC(=O)N2", "stereo": "stereo unspecified", "Mtb cholesterol medium": 0.1314, "Mtb glucose medium": "20.71 & 5.173"}
{"compound": "CC(C)c1ncncc1C(=O)NCCN1CCCCC1C", "stereo": "stereo unspecified", "Mtb cholesterol medium": 2.488, "Mtb glucose medium": 3.942}
{"compound": "CCN1CC2(CCC1=O)CCN(C(=O)C(O)c1cccc(Cl)c1)CC2", "stereo": "stereo unspecified", "Mtb cholesterol medium": -17.82, "Mtb glucose medium": -22.11}
{"compound": "CN1CC2(CCN(C(=O)c3cc(-n4cccn4)ccc3Cl)CC2)OC1=O", "Mtb cholesterol medium": -22.56, "Mtb glucose medium": -12.98}
{"compound": "CC(NCc1ccsc1)c1ccc2c(c1)NC(=O)CO2", "stereo": "stereo unspecified", "Mtb cholesterol medium": 3.1, "Mtb glucose medium": 4.36}
{"compound": "O=C(O)C(F)(F)F.[H][C@@]12CN(C3CCOCC3)C[C@@]1([H])N(Cc1cccc(C)c1)C(=O)CO2", "Mtb cholesterol medium": -8.645, "Mtb glucose medium": -11.63}
{"compound": "Cc1cnn(C2CCCN(C(=O)CN(C)c3cnccn3)C2)c1", "stereo": "stereo unspecified", "Mtb cholesterol medium": "-20.54 & 0.1294", "Mtb glucose medium": -23.88}
{"compound": "O=C(c1ccccn1)N1CCCC(c2nccn2CC2CCC2)C1", "stereo": "stereo unspecified", "Mtb cholesterol medium": -26.37, "Mtb glucose medium": "-14.99 & -21.66"}
{"compound": "Cc1cnc(CN2CCN(C(C)c3nc(C)no3)CC2)cn1", "stereo": "stereo unspecified", "Mtb cholesterol medium": -24.55, "Mtb glucose medium": -28.68}
{"compound": "Cn1ccc(C(=O)N2CCCC2c2ccc3c(c2)OCCO3)cc1=O", "stereo": "stereo unspecified", "Mtb cholesterol medium": -16.42, "Mtb glucose medium": -11.66}
{"compound": "COCC(=O)N1CCN(C(=O)c2cccs2)[C@@H](C(=O)OC)C1", "Mtb cholesterol medium": 15.18, "Mtb glucose medium": "-37.92 & 5.083"}
{"compound": "Cc1nonc1-c1nc(C(C)C)nn1-c1ccc2c(c1)OCO2", "Mtb cholesterol medium": 1.161, "Mtb glucose medium": -8.599}
{"compound": "[H][C@@]12CO[C@@H](CNS(C)(=O)=O)[C@]1([H])CCN(C(=O)c1ccoc1C)C2", "Mtb cholesterol medium": -4.274, "Mtb glucose medium": "-3.717 & 1.309"}
{"compound": "CN(CC1CCOCC1)C(=O)NCCCN1CCCCC1", "Mtb cholesterol medium": -11.73, "Mtb glucose medium": -13.79}
{"compound": "CCCn1nc(C)c(C(=O)N[C@@H]2CC[C@@H](N3CCCC3)[C@@H]2O)c1C", "Mtb cholesterol medium": "-1.131 & 9.999", "Mtb glucose medium": -18.8}
{"compound": "O=C(c1ccc2sccc2c1)N1CCC(C(=O)O)(n2cccn2)CC1", "Mtb cholesterol medium": -14.62, "Mtb glucose medium": 22.3}
{"compound": "Cn1cccc1C(=O)N1CCC2(CC1)c1nc[nH]c1CCN2S(C)(=O)=O", "Mtb cholesterol medium": "7.467 & 2.961", "Mtb glucose medium": 8.929}
{"compound": "CN(Cc1cccs1)C(=O)CN1CCOC(Cn2cncn2)C1", "stereo": "stereo unspecified", "Mtb cholesterol medium": 28.29, "Mtb glucose medium": 6.952}
{"compound": "Cc1cc(Br)ccc1CNC(=O)C1(O)CCSCC1", "Mtb cholesterol medium": -7.82, "Mtb glucose medium": 23.22}
{"compound": "CCOCC(=O)NCC(CC)(OC)c1ccccc1", "stereo": "stereo unspecified", "Mtb cholesterol medium": 19.79, "Mtb glucose medium": "13.46 & -0.7922"}
{"compound": "[H][C@]12CN(C(C)=O)CCN1C[C@H](CO)[C@H]2c1ccccc1", "Mtb cholesterol medium": 14.12, "Mtb glucose medium": 8.147}
{"compound": "O=C1CN(C(=O)C2CCOC2)CCN1Cc1ccc(Cl)cc1", "stereo": "stereo unspecified", "Mtb cholesterol medium": 10.12, "Mtb glucose medium": 3.976}
{"compound": "Cc1c(-c2nc3cc(S(=O)(=O)N4CCCC4)ccc3n2C)cnn1C", "Mtb cholesterol medium": 25.58, "Mtb glucose medium": 17.72}

The last 3 entries again:

| compound | Mtb cholesterol medium | Mtb glucose medium |
|---|---|---|
| `[H][C@]12CN(C(C)=O)CCN1C[C@H](CO)[C@H]2c1ccccc1` | 14.12 | 8.147 |
| `O=C1CN(C(=O)C2CCOC2)CCN1Cc1ccc(Cl)cc1` (stereo unspecified) | 10.12 | 3.976 |
| `Cc1c(-c2nc3cc(S(=O)(=O)N4CCCC4)ccc3n2C)cnn1C` | 25.58 | 17.72 |